From article PMC7248865
Construct, isoform or probe ends are uncertain for at least one entry. Weaker means in comparison with the reference protein, sequence or condition of that experiment.

Amino acid sequences for entries named in this document (tags omitted). Residues count along the entry.
UniProt P02769, 25-607: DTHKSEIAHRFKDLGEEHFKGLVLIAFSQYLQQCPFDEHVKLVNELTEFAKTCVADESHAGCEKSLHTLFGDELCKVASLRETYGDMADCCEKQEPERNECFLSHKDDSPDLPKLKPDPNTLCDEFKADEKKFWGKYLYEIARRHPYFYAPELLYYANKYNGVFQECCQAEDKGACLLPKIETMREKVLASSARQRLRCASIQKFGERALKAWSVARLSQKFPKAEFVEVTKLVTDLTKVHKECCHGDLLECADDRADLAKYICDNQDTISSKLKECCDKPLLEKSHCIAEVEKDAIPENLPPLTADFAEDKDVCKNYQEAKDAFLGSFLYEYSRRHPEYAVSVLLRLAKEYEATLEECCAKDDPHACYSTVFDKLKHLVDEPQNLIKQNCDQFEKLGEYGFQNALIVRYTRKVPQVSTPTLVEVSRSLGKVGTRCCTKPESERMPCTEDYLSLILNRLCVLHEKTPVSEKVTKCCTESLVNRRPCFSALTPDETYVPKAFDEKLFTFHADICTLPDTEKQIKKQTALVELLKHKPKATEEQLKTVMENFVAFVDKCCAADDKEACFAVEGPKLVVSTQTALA

Key:
[1] = target: BSA (UniProt P02769); assay: graphene FET (drain current); details: 1 pg/mL BSA, ID 47.34 uA vs 338.64 uA for ADH; 5'-amine; PBS (or human serum), 10 min incubation per concentration, PBS washes; pH and temperature not stated; single-stranded DNA
[2] = system: glucose oxidase (GOx); assay: graphene FET (drain current); details: in place of ADH, ID 25.55 uA vs 338.64 uA for ADH, called non-specific; 5'-amine; PBS (or human serum), 10 min incubation per concentration, PBS washes; pH and temperature not stated; single-stranded DNA

“TCACGTGCATGATAGACGGCGAAGCCGTCGAGTTGCTGTGTGCCGATGCACGTGA [ADH-specific aptamer]”: binds more weakly [1]; binds more weakly [2].
